Source: the supplement of paper PMC10849652
The other results are listed elsewhere or left out.

The chains behind the UniProt entries cited, without tags or fusion partners. Where a name states a change or a piece, a line headed by the entry shows the natural chain unless it says otherwise.
UniProt Q96ER9: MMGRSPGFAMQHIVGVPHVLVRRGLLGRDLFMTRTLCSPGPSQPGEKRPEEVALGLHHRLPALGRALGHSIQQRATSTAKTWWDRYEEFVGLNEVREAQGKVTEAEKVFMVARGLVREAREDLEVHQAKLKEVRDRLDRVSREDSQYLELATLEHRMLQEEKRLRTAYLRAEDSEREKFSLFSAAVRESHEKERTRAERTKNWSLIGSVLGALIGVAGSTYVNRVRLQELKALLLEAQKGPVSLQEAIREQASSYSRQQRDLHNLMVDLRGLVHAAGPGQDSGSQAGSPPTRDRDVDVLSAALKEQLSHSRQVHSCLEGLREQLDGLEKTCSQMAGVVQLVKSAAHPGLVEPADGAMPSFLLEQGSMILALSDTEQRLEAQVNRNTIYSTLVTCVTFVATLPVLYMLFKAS
UniProt Q9UJX2, whole entry, looked up: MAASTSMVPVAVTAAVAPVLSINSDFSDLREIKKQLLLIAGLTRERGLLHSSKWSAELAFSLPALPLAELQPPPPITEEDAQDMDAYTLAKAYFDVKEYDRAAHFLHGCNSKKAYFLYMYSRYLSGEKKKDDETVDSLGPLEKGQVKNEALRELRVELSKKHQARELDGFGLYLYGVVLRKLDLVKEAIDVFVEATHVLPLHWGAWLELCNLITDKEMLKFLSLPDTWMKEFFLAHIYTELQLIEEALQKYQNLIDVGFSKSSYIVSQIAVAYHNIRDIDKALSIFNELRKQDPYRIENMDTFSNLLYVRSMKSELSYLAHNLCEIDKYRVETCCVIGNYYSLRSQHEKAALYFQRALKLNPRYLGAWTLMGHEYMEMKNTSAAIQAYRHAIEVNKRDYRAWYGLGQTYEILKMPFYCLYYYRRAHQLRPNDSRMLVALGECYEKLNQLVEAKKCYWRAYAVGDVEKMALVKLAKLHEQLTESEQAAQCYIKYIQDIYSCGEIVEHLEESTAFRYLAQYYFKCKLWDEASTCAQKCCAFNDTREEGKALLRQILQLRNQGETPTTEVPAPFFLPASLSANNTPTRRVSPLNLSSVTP
UniProt O60563, whole entry, looked up: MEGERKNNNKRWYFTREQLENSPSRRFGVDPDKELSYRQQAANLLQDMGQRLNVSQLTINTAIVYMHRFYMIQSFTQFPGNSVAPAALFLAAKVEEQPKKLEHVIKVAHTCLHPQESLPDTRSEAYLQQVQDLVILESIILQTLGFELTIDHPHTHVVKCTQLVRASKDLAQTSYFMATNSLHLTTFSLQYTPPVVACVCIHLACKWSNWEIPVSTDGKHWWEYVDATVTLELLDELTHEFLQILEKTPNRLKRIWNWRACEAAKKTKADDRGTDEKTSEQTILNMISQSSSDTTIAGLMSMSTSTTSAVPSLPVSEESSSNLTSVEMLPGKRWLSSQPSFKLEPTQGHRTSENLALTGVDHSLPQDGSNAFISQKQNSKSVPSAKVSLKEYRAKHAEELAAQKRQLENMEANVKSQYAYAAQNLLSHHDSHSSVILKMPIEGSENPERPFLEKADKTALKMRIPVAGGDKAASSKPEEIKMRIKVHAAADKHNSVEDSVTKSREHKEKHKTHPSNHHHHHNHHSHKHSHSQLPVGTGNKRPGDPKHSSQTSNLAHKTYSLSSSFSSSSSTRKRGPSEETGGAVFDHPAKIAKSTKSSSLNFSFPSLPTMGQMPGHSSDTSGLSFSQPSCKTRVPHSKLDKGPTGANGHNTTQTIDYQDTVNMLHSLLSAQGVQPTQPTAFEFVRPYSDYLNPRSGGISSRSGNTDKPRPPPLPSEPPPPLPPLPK
UniProt P30260, whole entry, looked up: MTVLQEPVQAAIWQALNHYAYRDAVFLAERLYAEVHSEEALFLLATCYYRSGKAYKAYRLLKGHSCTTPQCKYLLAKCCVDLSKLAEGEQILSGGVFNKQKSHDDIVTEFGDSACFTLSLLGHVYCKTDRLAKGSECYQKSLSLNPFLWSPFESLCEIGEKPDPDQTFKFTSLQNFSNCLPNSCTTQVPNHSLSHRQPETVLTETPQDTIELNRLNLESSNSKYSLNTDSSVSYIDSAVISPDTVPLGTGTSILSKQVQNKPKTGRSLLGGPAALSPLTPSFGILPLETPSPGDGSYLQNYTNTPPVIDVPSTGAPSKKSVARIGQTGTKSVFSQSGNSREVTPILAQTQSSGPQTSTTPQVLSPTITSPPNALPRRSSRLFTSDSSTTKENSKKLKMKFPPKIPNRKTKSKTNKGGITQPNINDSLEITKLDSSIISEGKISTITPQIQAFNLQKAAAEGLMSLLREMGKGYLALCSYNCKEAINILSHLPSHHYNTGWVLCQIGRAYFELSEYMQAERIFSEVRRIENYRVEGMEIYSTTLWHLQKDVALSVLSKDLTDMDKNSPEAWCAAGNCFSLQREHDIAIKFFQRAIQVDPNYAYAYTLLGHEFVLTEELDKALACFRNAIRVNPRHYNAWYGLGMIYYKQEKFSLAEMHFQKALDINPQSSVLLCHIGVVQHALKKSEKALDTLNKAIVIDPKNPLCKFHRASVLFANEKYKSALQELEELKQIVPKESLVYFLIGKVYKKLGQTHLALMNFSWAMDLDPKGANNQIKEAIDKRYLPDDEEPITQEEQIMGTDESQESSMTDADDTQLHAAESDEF
UniProt Q2TAC2: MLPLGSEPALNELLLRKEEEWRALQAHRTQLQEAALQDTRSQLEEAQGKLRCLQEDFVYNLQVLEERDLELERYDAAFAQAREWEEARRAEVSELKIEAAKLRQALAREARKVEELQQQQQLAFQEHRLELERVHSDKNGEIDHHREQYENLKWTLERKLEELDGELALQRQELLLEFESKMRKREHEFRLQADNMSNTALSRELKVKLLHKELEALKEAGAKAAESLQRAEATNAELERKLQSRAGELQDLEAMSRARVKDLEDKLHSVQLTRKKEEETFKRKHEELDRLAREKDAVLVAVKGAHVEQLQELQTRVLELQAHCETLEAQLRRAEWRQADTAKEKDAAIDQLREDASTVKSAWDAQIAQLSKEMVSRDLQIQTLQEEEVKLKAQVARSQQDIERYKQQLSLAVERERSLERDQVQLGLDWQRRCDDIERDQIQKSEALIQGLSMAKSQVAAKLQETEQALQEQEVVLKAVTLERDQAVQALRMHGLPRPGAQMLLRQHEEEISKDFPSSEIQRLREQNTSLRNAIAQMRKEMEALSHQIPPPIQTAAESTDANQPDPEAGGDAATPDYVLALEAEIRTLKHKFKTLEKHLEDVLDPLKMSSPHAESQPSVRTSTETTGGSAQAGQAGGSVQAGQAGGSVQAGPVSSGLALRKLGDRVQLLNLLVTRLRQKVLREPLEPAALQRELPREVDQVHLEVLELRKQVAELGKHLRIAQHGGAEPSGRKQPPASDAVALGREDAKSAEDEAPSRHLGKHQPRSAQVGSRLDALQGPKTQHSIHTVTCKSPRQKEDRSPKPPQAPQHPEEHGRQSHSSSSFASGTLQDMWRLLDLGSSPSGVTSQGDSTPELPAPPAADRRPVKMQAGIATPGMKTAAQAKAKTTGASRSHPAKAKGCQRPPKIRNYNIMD
UniProt Q6P4E1: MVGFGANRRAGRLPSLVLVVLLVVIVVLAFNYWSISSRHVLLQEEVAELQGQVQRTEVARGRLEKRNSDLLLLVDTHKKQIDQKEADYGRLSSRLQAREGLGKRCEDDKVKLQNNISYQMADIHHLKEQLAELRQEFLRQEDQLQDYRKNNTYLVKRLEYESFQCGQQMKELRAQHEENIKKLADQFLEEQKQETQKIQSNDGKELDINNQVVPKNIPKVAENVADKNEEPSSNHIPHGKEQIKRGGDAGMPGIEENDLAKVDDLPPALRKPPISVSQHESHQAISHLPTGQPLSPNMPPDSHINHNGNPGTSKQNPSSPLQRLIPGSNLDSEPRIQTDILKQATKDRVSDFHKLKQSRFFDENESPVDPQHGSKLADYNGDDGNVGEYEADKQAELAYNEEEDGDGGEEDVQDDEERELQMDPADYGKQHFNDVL
UniProt Q6P1N0: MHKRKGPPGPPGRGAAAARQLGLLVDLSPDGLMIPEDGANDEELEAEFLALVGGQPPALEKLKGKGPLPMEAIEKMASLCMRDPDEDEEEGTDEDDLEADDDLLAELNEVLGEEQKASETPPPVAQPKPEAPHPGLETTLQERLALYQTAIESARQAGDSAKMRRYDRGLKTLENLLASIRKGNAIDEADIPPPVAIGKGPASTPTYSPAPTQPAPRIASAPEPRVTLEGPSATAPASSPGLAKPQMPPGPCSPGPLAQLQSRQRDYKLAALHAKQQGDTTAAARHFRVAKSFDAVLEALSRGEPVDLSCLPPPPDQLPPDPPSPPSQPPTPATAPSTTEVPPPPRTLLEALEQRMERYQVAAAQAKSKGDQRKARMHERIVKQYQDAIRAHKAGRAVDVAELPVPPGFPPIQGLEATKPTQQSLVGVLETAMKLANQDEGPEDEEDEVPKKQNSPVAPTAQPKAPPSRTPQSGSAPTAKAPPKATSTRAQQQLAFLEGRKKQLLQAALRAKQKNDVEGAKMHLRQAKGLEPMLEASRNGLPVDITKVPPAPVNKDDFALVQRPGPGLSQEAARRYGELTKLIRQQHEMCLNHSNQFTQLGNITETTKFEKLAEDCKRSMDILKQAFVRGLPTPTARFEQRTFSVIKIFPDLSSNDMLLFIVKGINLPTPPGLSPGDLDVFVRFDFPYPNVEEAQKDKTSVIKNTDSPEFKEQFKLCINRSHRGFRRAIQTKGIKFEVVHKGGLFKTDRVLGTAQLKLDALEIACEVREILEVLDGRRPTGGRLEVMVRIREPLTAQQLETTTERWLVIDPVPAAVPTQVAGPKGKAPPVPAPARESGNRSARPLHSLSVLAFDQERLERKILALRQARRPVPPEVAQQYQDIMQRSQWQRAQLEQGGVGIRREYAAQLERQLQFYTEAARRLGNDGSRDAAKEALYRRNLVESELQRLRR
UniProt P48960: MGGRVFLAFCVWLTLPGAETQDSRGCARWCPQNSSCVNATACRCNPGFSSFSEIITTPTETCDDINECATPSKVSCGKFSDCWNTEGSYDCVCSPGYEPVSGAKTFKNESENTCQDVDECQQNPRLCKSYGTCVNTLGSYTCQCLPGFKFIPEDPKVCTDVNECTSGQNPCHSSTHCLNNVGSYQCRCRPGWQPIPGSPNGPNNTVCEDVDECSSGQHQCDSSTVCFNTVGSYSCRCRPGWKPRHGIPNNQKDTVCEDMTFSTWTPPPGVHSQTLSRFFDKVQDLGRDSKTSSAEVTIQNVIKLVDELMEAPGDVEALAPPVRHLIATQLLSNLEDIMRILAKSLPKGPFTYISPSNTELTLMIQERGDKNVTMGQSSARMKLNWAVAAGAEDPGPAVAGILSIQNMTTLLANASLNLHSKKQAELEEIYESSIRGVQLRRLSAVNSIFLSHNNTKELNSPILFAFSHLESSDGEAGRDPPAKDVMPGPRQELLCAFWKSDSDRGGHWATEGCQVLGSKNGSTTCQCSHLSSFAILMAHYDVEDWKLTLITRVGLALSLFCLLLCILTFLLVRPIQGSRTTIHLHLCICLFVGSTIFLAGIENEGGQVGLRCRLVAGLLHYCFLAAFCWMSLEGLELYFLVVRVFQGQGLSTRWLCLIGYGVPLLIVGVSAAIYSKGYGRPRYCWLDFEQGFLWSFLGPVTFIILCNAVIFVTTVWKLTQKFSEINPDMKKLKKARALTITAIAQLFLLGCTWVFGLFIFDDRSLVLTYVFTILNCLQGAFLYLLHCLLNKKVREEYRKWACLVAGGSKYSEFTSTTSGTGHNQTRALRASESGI
UniProt O95810: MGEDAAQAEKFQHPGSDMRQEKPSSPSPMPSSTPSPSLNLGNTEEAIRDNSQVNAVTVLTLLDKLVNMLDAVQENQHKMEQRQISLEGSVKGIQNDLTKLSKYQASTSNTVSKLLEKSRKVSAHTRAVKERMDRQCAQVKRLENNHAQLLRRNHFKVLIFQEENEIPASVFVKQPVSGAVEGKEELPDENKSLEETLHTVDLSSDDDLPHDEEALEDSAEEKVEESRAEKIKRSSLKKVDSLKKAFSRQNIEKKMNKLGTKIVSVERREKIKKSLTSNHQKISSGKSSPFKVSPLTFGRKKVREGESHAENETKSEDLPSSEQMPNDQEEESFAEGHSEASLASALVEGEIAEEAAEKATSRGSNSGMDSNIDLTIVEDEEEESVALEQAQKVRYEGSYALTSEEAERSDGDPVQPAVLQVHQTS
UniProt P14635, whole entry, looked up: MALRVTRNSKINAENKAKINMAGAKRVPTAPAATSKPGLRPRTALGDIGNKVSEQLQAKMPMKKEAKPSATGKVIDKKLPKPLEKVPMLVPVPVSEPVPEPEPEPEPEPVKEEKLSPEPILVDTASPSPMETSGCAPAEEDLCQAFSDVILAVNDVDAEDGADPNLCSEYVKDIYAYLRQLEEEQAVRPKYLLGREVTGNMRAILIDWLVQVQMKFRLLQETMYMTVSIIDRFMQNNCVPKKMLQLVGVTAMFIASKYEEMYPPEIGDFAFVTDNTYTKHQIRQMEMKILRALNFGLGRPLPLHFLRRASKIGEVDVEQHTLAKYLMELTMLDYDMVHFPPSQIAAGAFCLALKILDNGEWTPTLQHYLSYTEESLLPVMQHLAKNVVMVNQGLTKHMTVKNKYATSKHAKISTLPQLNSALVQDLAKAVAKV

How the values were obtained:
Experiment in all cases: log2 fold change, soluble protein after heating vs DMSO (PISA); higher = thermal stabilisation; K562 cells, 10 uM, 30 min; active = over 0.2 and 3.5 SD of the protein, either way, in both replicates (recomputed)
[1] = compound: C1=CC=C(C=C1)[C@H](COC2=CC3=C(C=C2)NC(=O)N3)NC(=O)C4=CC=CN(C4=O)CC5=CC(=C(C=C5)F)F
Outline: (§1)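 K562 cells at 2×10^6 cells/mL were given 10 μM compound for 30 min. Aliquots then went through 3 min of heating across 48°C-58°C, were pooled, and were extracted in PBS with 0.5% NP-40 at 4°C, and the supernatant after 21,000xg for 90 min was quantified by TMTpro 16plex LC-MS/MS with channel sums equalised. Thermal stability relative to control samples, from duplicates, is given as log2 fold change.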

[2] = compound: CC1=C(SC2=C1C(=N[C@H](C3=NN=C(N32)C)CC(=O)N)C4=CC=C(C=C4)Cl)C
Outline: as §1

[3] = compound: CC1=C2C(=CC=C1)N=C(N(C2=O)C3=CC=CC=C3C)CN4C=NC5=C(N=CN=C54)N
Outline: as §1

[4] = compound: Cc1sc2c(c1C)C(c1ccc(Cl)cc1)=N[C@@H](CC(=O)OC(C)(C)C)c1nnc(C)n1-2
Outline: as §1

[5] = compound: c1ccc([C@@H]2C[C@H]2NC2CCNCC2)cc1
Outline: as §1

Row | Target | log2 fold change [1] | log2 fold change [2] | log2 fold change [3] | log2 fold change [4] | log2 fold change [5]
1 | CCT3 (UniProt P49368) | inactive: 0.009 | inactive: 0.018 | inactive: -0.02 | inactive: 0 | inactive: -0.013
2 | CD55 isoform 7 (UniProt P08174) | inactive: 0.026 | inactive: -0.058 | inactive: -0.009 | inactive: -0.066 | inactive: -0.049
3 | CD320 (UniProt Q9NPF0) | inactive: 0.012 | inactive: -0.008 | inactive: -0.006 | inactive: -0.017 | inactive: -0.005
4 | CD58 (UniProt P19256) | inactive: 0.006 | inactive: 0.017 | inactive: 0.059 | inactive: -0.026 | inactive: -0.033
5 | CBR1 (UniProt P16152) | inactive: -0.009 | inactive: 0.015 | inactive: 0.01 | inactive: -0.028 | inactive: -0.037
6 | CCDC117 (UniProt Q8IWD4) | inactive: 0.051 | inactive: -0.005 | inactive: -0.025 | inactive: 0.166 | inactive: 0.028
7 | CC2D1B isoform 2 (UniProt Q5T0F9) | inactive: -0.074 | inactive: 0 | inactive: 0.052 | inactive: 0.011 | inactive: -0.032
8 | CCDC9 (UniProt Q9Y3X0) | inactive: -0.019 | inactive: -0.012 | inactive: -0.118 | inactive: 0.091 | inactive: 0.041
9 | CCDC47 (UniProt Q96A33) | inactive: -0.027 | inactive: 0.075 | inactive: 0.085 | inactive: -0.013 | inactive: -0.005
10 | CCT8 (UniProt P50990) | inactive: -0.006 | inactive: 0.01 | inactive: -0.013 | inactive: -0.023 | inactive: 0.002
11 | CCDC51 (UniProt Q96ER9) | inactive: 0.022 | inactive: 0.053 | inactive: 0.02 | inactive: -0.021 | inactive: -0.046
12 | CCNDBP1 (UniProt O95273) | inactive: 0.023 | inactive: -0.118 | inactive: 0.182 | inactive: 0.007 | inactive: 0.047
13 | CCDC6 (UniProt Q16204) | inactive: -0.006 | inactive: 0.039 | inactive: 0.043 | inactive: -0.011 | inactive: -0.001
14 | CCDC32 isoform 2 (UniProt Q9BV29) | inactive: -0.014 | inactive: 0.052 | inactive: 0.076 | inactive: 0.005 | inactive: 0.047
15 | CDC23 (UniProt Q9UJX2) | inactive: 0.417 | inactive: -0.027 | inactive: 0.016 | inactive: 0.014 | inactive: -0.023
16 | CCNA2 (UniProt P20248) | inactive: 0.005 | inactive: -0.016 | inactive: -0.028 | inactive: 0.007 | inactive: 0.058
17 | CDC40 (UniProt O60508) | inactive: 0.248 | inactive: -0.121 | inactive: -0.076 | inactive: -0.15 | inactive: 0.081
18 | CCAR2 isoform 2 (UniProt Q8N163) | inactive: -0.057 | inactive: -0.014 | inactive: 0.079 | inactive: -0.089 | inactive: 0.011
19 | CCNK isoform 4 (UniProt O75909) | inactive: 0.045 | inactive: -0.115 | inactive: 0.015 | inactive: 0.103 | inactive: 0.069
20 | CCT6A (UniProt P40227) | inactive: 0.007 | inactive: -0.013 | inactive: -0.011 | inactive: -0.031 | inactive: 0.002
21 | CBL (UniProt P22681) | inactive: -0.016 | inactive: 0.063 | inactive: 0.065 | inactive: -0.074 | inactive: 0
22 | CCNT1 (UniProt O60563) | inactive: 0.108 | inactive: -0.022 | inactive: -0.036 | inactive: 0.085 | inactive: 0.072
23 | CDC37 (UniProt Q16543) | inactive: -0.029 | inactive: 0.015 | inactive: 0.035 | inactive: 0 | inactive: -0.027
24 | CCDC124 (UniProt Q96CT7) | inactive: 0.021 | inactive: -0.047 | inactive: -0.021 | inactive: 0.035 | inactive: -0.001
25 | CDC27 isoform 2 (UniProt P30260) | inactive: 0.043 | inactive: -0.006 | inactive: 0.028 | inactive: 0.006 | inactive: -0.013
26 | CCDC57 (UniProt Q2TAC2) | inactive: 0.015 | active: 0.262 | inactive: 0.047 | inactive: -0.161 | inactive: -0.139
27 | CASC4 (UniProt Q6P4E1) | inactive: -0.009 | inactive: 0.035 | inactive: 0.044 | inactive: 0.019 | inactive: -0.02

Two entries from above, in markdown:

| Row | Target | log2 fold change [1] | log2 fold change [2] | log2 fold change [3] | log2 fold change [4] | log2 fold change [5] |
| --- | --- | --- | --- | --- | --- | --- |
| 13 | CCDC6 (UniProt Q16204) | inactive: -0.006 | inactive: 0.039 | inactive: 0.043 | inactive: -0.011 | inactive: -0.001 |
| 14 | CCDC32 isoform 2 (UniProt Q9BV29) | inactive: -0.014 | inactive: 0.052 | inactive: 0.076 | inactive: 0.005 | inactive: 0.047 |

Later entries.

Row | Target | log2 fold change [1] | log2 fold change [2] | log2 fold change [3] | log2 fold change [4] | log2 fold change [5]
28 | CAVIN1 (UniProt Q6NZI2) | inactive: 0.017 | inactive: -0.127 | inactive: -0.103 | inactive: 0.101 | inactive: 0
29 | CCNH (UniProt P51946) | inactive: 0.02 | inactive: -0.035 | inactive: 0.032 | inactive: 0.002 | inactive: 0.033
30 | CCDC86 (UniProt Q9H6F5) | inactive: 0.094 | inactive: -0.288 | inactive: -0.182 | inactive: 0.153 | inactive: 0
31 | CD2AP (UniProt Q9Y5K6) | inactive: -0.001 | inactive: 0.014 | inactive: 0.044 | inactive: 0.01 | inactive: 0.014
32 | CBS (UniProt P35520) | inactive: -0.029 | inactive: 0.07 | inactive: 0.016 | inactive: -0.014 | inactive: -0.026
33 | CD59 isoform 2 (UniProt P13987) | inactive: 0.031 | inactive: -0.017 | inactive: 0.016 | inactive: -0.035 | inactive: 0.028
34 | CC2D1A (UniProt Q6P1N0) | inactive: -0.047 | inactive: 0.002 | inactive: 0.12 | inactive: 0.007 | inactive: -0.051
35 | CD97 (UniProt P48960) | inactive: 0.013 | inactive: -0.043 | inactive: -0.047 | inactive: -0.052 | inactive: 0.2
36 | CCAR1 (UniProt Q8IX12) | inactive: -0.129 | inactive: 0.061 | inactive: 0.043 | inactive: 0.044 | inactive: -0.043
37 | CASP10 isoform 4 (UniProt Q92851) | inactive: 0.064 | inactive: 0.189 | inactive: 0.114 | inactive: 0.002 | inactive: -0.145
38 | CCDC28A (UniProt Q8IWP9) | inactive: 0 | inactive: 0.163 | inactive: -0.053 | inactive: -0.069 | inactive: 0.139
39 | CCDC90B (UniProt Q9GZT6) | inactive: -0.007 | inactive: 0.052 | inactive: 0.011 | inactive: -0.078 | inactive: -0.024
40 | CBFB isoform 2 (UniProt Q13951) | inactive: -0.023 | inactive: 0.042 | inactive: 0.025 | inactive: 0.021 | inactive: -0.026
41 | CARNMT1 (UniProt Q8N4J0) | inactive: -0.088 | inactive: 0.144 | inactive: 0.068 | inactive: 0.035 | inactive: -0.081
42 | CBWD1 (UniProt Q9BRT8) | inactive: 0.017 | inactive: 0.02 | inactive: 0.081 | inactive: -0.185 | inactive: -0.065
43 | CCDC58 (UniProt Q4VC31) | inactive: 0.027 | inactive: -0.031 | inactive: -0.011 | inactive: -0.025 | inactive: 0.045
44 | CD151 (UniProt P48509) | inactive: -0.126 | inactive: 0.049 | inactive: 0.031 | inactive: -0.046 | inactive: 0.101
45 | CCDC50 (UniProt Q8IVM0) | inactive: 0.012 | inactive: 0.007 | inactive: 0.019 | inactive: 0.005 | inactive: 0.012
46 | CASP2 (UniProt P42575) | inactive: -0.039 | inactive: 0.016 | inactive: 0.027 | inactive: -0.01 | inactive: -0.039
47 | CBFA2T3 (UniProt O75081) | inactive: -0.031 | inactive: 0.011 | inactive: 0.03 | inactive: -0.003 | inactive: 0.099
48 | CAVIN2 (UniProt O95810) | inactive: 0.031 | inactive: -0.112 | inactive: -0.028 | inactive: 0.071 | inactive: 0.02
49 | CD53 (UniProt P19397) | inactive: -0.05 | inactive: 0.142 | inactive: 0.106 | inactive: 0.083 | inactive: 0.014
50 | CBX1 (UniProt P83916) | inactive: 0.003 | inactive: 0.026 | inactive: 0.023 | inactive: -0.003 | inactive: 0.031
51 | CD46 isoform 2 (UniProt P15529) | inactive: 0.004 | inactive: 0.09 | inactive: 0.02 | inactive: 0.016 | inactive: 0.02
52 | CCNB1 (UniProt P14635) | inactive: -0.004 | inactive: 0.036 | inactive: 0.015 | inactive: -0.007 | inactive: 0.026
53 | CDC123 (UniProt O75794) | inactive: -0.036 | inactive: 0 | inactive: 0.03 | inactive: -0.018 | inactive: -0.029
